Experimental data from PubChem BioAssay AID1347076 (National Center for Advancing Translational Sciences (NCATS), 2019).
About 13,000 (3.2%) of roughly 400,000 compounds were called active. Inconclusive results, whose numbers are uncertain, are shown with a selection of clear calls. The call rests on the fitted dose curve; in most records, active means well fitted cell-killing curve with a large enough effect; inconclusive means small, poorly fitted or top-dose-only effect, or effect the other way; inactive means flat fitted curve, though single readings scatter. A potency beside an inconclusive call is a rough fit, not a confirmed value.

test: qHTS assay for MDR1-selective chemotherapeutics: Primary screen using the drug-selected MDR subline cells KB-V1; details: KB-V1 MDR cells viability, CellTiter-Glo, 72 h; activity change, negative = cytotoxicity: at 46.1 µM (top of the series); further: nearly all actives have a fitted effect of over 60% in size
Procedure, shortened: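 KB-V1 cells (P-gp-expressing MDR subline of KB-3-1) in phenol-red-free DMEM with 10% FBS were exposed to library compounds over a concentration series for 72 h at 37 degrees C. Viability read by CellTiter-Glo luminescence; concentration-effect curves fitted after normalization.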
On the % scale 0 is the no-effect control and ±100 the full control effect; potency means the concentration at half of the fitted maximal effect.

Structure (SMILES)	activity change, negative = cytotoxicity	Potency
O=C(Cn1ncc2c([nH]c3ccccc32)c1=O)Nc1cccc(C(F)(F)F)c1	inactive: 15.8%	–
CCOC(=O)N1CCN(CC(=O)Nc2nc3ccccc3s2)CC1	–	active: 11.6 µM
O=S(=O)(NCC1CCCO1)c1cccc2nsnc12 (stereo not given)	–	inconclusive: 29.1 µM [rising, single point]
CC(=O)N1CCc2cc(S(=O)(=O)NC(Cc3ccccc3)C(=O)Nc3cccc(C)c3)ccc21 (stereo not given)	–	inconclusive: 29.1 µM [cytotoxic, single point]
N#Cc1nc(-c2cccs2)oc1NCC1CCCO1 (stereo not given)	–	inconclusive: 20.6 µM [cytotoxic, single point]
CC(=O)NCC(=O)N[C@@H](CC(=O)OCc1ccccc1)C(=O)OCc1ccccc1	inactive: 9.32%	–
CC(=O)Nc1ccc(NC(=S)NC(=O)C2CCCC2)cc1	inactive: 24.4%	–
CSc1ccccc1C(=O)OCC(=O)NCCN1C(=O)CSC1=O	–	inconclusive: 29.1 µM [cytotoxic, partial curve, poor fit]
CC(=O)N1CCCC(C(=O)c2ccc(Oc3ccccc3)cc2)C1 (stereo not given)	–	inconclusive: 29.1 µM [cytotoxic, single point]
COc1ccc2c(c1)nc(SCC(=O)c1ccc(Br)s1)n2C	–	inconclusive: 16.4 µM [cytotoxic, partial curve]
Cc1nn(Cc2ccc(Cl)cc2)c(=O)n1N(C)c1ncc(C(F)(F)F)cc1Cl	–	inconclusive: 32.6 µM [cytotoxic, partial curve, poor fit]
COc1ccc(NC(=S)N2CCN(C(=O)c3ccco3)CC2)c(OC)c1	–	inconclusive: 20.6 µM [cytotoxic, single point]
CCN1CCN(C(c2cccs2)C(C)NC(=O)C(=O)N2CCCCC2)CC1 (stereo not given)	–	inconclusive: 18.4 µM [rising, single point]
Cc1cc(SCC(=O)N2CCC(c3noc4ccc(F)cc34)CC2)nc2ccccc12	–	inconclusive: 9.2 µM [cytotoxic, partial curve, poor fit]
Cc1cc(C(=O)C(C)OC(=O)c2ccc(NC(=O)CC#N)cc2)c(C)n1-c1ccc(OC(F)F)cc1 (stereo not given)	–	active: 18.4 µM
O=C(COC(=O)c1ccc(NS(=O)(=O)c2ccc3c(c2)OCCO3)cc1)NC1CC1	–	inconclusive: 5.8 µM [rising, partial curve, poor fit]
O=C(CCN1C(=O)c2ccccc2C1=O)Oc1ccc2ccccc2c1	inactive: 2.57%	–
O=C1C(Nc2ccccc2)=CC(c2ccc(Br)cc2)N1c1ccccc1 (stereo not given)	–	inconclusive: 23.1 µM [rising, single point]
CCNC(=S)N1CCCCC1CO (stereo not given)	–	inconclusive: 14.6 µM [rising, partial curve]
COc1ccc(-c2nnc(CSc3ncnc4sc5c(c34)CCC5)o2)cc1OC	–	active: 20.6 µM
CCc1ccc(C2C(C#N)=C(N)C(C#N)(C#N)C3=CCC(C(C)(C)C)CC32)cc1 (stereo not given)	–	inconclusive: 18.4 µM [cytotoxic, single point]
COc1ccc(NC(=O)CCCc2c[nH]c3ccccc23)cc1OC	–	inconclusive: 6.51 µM [rising, partial curve, poor fit]
COc1ccccc1C(C[N+](=O)[O-])c1c(N)n(C)c(=O)n(C)c1=O (stereo not given)	–	active: 7.31 µM
Cc1c(Cl)cccc1NC(=S)NCC(C)C	inactive: -9.72%	–

Structure (SMILES)	activity change, negative = cytotoxicity	Potency
O=C1Nc2ccccc2N=C(c2ccc3c(c2)OCO3)C1N(C(=O)c1ccc2ccccc2c1)C1CC1 (stereo not given)	–	inconclusive: 20.6 µM [cytotoxic, single point]
COc1ccccc1CCn1cnc(C)c1CC(C)C	inactive: -10.5%	–
O=C(Cn1nnc(-c2ccccc2)n1)Nc1ccccc1N1CCOCC1	–	inconclusive: 16.4 µM [cytotoxic, partial curve]
COc1ccc(C)cc1NC(=O)C(Sc1nnc(-c2ccncc2)n1-c1ccc(Cl)cc1)c1ccccc1 (stereo not given)	–	inconclusive: 18.4 µM [cytotoxic, single point]
O=C(NCC(=O)N1CCN(S(=O)(=O)c2ccccc2C(F)(F)F)CC1)c1sc2ccccc2c1Cl	–	inconclusive: 0.291 µM [cytotoxic, full curve, poor fit]
NC(=O)c1ccccc1N/C=C/C(=O)c1ccc(Cl)cc1	–	inconclusive: 35.5 µM [cytotoxic, single point]
Cc1ccc2c(c1)c1c(c(=O)n(-c3cccc(Cl)c3)c(=O)n1CC(=O)NCC1CCCO1)n2C (stereo not given)	inactive: -1.34%	–
COc1ccc(CCNc2oc(Cc3ccccc3)nc2C#N)cc1OC	–	inconclusive: 23.1 µM [cytotoxic, single point]
COc1ccc(NC(=O)[C@H]2O[C@@H]3OC(C)(C)O[C@@H]3[C@H]3OC(C)(C)O[C@H]32)c(OC)c1	inactive: -6.18%	–
Cc1c(C(=O)NCc2ccc(F)cc2)oc2ccc(S(=O)(=O)N3CCCCC3)cc12	–	inconclusive: 4.11 µM [cytotoxic, full curve]
C#CCOCCOCCOCCNc1nc(N2CCN(C(=O)[C@H](CCCCN)n3cc(CCCC)nn3)CC2)nc(N2CCN(C(=O)[C@H](Cc3ccc(O)cc3)n3cc(CCO)nn3)CC2)n1	inactive: -5.89%	–
Cc1cccc(NC(=O)c2ccc(NCCc3ccccc3)c([N+](=O)[O-])c2)c1	inactive: -1.6%	–
CCOc1ccccc1NC(=O)C(OC(=O)c1ccccc1)c1ccccc1 (stereo not given)	–	inconclusive: 29.1 µM [cytotoxic, single point]
Cc1ccc(OCCN2C(=O)c3ccccc3C2=O)c([N+](=O)[O-])c1	inactive: -11.7%	–
CCC(=O)N1CCCc2cc(S(=O)(=O)N3CCN(c4ncccn4)CC3)ccc21	inactive: -16.5%	–
Cn1c(=O)[nH]c(=O)c2c1nc(N1CCOCC1)n2Cc1ccccc1	inactive: 6.07%	–
COC(=O)C1(C(=O)OC)c2ccccc2N(S(=O)(=O)c2ccc(C)cc2)C1CC(=O)c1ccccc1 (stereo not given)	–	inconclusive: 8.2 µM [cytotoxic, partial curve, poor fit]
CCOC(=O)c1cnc2c(c(C)nn2CC)c1Cl	–	inconclusive: 29.1 µM [cytotoxic, single point]
COc1ccc(C(=O)N/N=C/c2ccc(OC(=O)c3ccccc3)cc2)cc1	inactive: -20.7%	–
CC(=O)Oc1ccc(N2C(=O)C3C(C2=O)C(C(=O)c2ccc(Cl)cc2)N2CCCC32)cc1 (stereo not given)	–	inconclusive: 18.4 µM [cytotoxic, single point]
Cc1cc(NC(=O)COC(=O)C2COc3ccccc3O2)no1 (stereo not given)	–	inconclusive: 16.4 µM [rising, partial curve, poor fit]
c1ccc2c(c1)oc1c(Nc3ccc(CN4CCOCC4)cc3)ncnc12	–	active: 18.4 µM
CCCC12CN(C(=O)c3ccco3)CC(CCC)(CN(C(=O)c3ccco3)C1)C2=O	–	inconclusive: 4.11 µM [cytotoxic, full curve]
Cc1nc2c(N=Nc3ccccc3F)c(N)nn2c(N)c1C#N	inactive: 7.84%	–

Structure (SMILES)	activity change, negative = cytotoxicity	Potency
CCc1cccc(NC(=O)CCc2nc3cccnc3n2Cc2ccc(OC)cc2)c1	–	inconclusive: 0.0073 µM [cytotoxic, full curve]
COCCN(Cc1ccccc1)C(=S)Nc1ccc(OC(F)F)cc1	–	inconclusive: 23.1 µM [cytotoxic, single point]
CCn1c(C)nnc1SCC(=O)Nc1ccc(N2CCOCC2)cc1	inactive: 1.01%	–
CCN(CC)CCNC(=O)Cn1ncc2c3ccccc3n(Cc3ccc(Cl)cc3)c2c1=O	–	inconclusive: 16.4 µM [rising, single point]
COc1ccc(C2Oc3ccccc3C3=C2C(c2cccs2)n2ncnc2N3)cc1 (stereo not given)	–	active: 5.8 µM
O=C(NC1CCN(Cc2nnnn2CCc2ccccc2)CC1)c1ccccc1F	–	active: 16.4 µM
Cc1ccc(NC(=O)CSc2nc(=O)n(Cc3cccnc3)c3c2CCC3)cc1F	inactive: 0%	–
COc1ccc(Cc2nnc(Cl)c3ccccc23)cc1OC	inactive: -18.6%	–
CC(=O)C(N=Nc1ccccc1)(Sc1nnc(-c2ccccc2)n1-c1ccccc1)C(C)=O	–	active: 11.6 µM
CC1Cc2cccc3ccc(=O)n(c23)C1 (stereo not given)	–	inconclusive: 20.6 µM [cytotoxic, single point]
CC1CCN(CCCNC(=O)c2ccc(CS(=O)(=O)Cc3ccc(Cl)cc3)o2)CC1	inconclusive: 30.2%	–
Cc1ccc([C@@H]2CC=C(C(=O)O)[C@H](c3ccccc3)N2S(=O)(=O)c2ccccc2C)cc1	inactive: -0.0339%	–
CCOc1ccc2oc(C(=O)N3CCN(c4ccccc4OCC)CC3)c(C)c2c1	–	inconclusive: 23.1 µM [cytotoxic, single point]
O=C(NC1=NCCS1)c1ccc(C(F)(F)F)cc1	–	inconclusive: 20.6 µM [rising, single point]
O=C(NN1CCCCC1)c1cccc(COc2ccc(Cl)cc2)c1	–	active: 14.6 µM
O=C(CSc1nc2cc(C(F)(F)F)ccc2n1Cc1ccccc1)NC1CCS(=O)(=O)C1 (stereo not given)	–	inconclusive: 9.2 µM [cytotoxic, partial curve]
COc1c(Cl)cc(Cl)cc1C(=O)Nc1ccc(C(=O)O)cc1	–	inconclusive: 29.1 µM [rising, single point]
Cc1ccc(S(=O)(=O)N2CCCCC2)cc1C(=O)OC(C)C(=O)NC1CCCCC1C (stereo not given)	–	inconclusive: 5.8 µM [cytotoxic, partial curve]
Cc1cc(NC(=O)Cn2cnc3sc(C)c(C)c3c2=O)no1	inactive: -2.06%	–
Cc1c(NC(=O)C(=O)/C=C(/O)c2ccccc2)c(=O)n(-c2ccccc2)n1C	–	inconclusive: 20.6 µM [cytotoxic, partial curve]
Cc1ccc(-n2nnnc2SCC(=O)Nc2ccccc2-c2ccccc2)cc1C	–	inconclusive: 18.4 µM [cytotoxic, partial curve, poor fit]
Cc1scc(C(=O)N2CCN(c3ccc(Cl)cc3)CC2)c1C	–	inconclusive: 11.6 µM [cytotoxic, partial curve]

Reprinted at random: three compounds from above
Structure (SMILES)	activity change, negative = cytotoxicity	Potency
Cc1ccc(S(=O)(=O)N2CCCCC2)cc1C(=O)OC(C)C(=O)NC1CCCCC1C (stereo not given)	–	inconclusive: 5.8 µM [cytotoxic, partial curve]
COc1ccc(C2Oc3ccccc3C3=C2C(c2cccs2)n2ncnc2N3)cc1 (stereo not given)	–	active: 5.8 µM
O=C(NN1CCCCC1)c1cccc(COc2ccc(Cl)cc2)c1	–	active: 14.6 µM
